Source: PubChem BioAssay AID1688 (National Center for Advancing Translational Sciences (NCATS), 2009)
The whole screen tested about 220,000 compounds, of which about 2,400 (1.1%) were called active. The inconclusive results got no clear call from the source; some entries with a clear call stand among them for comparison. Calls come from the whole dose curve; as a rule, active = well fitted inhibition curve with a large enough effect; inconclusive = small, poorly fitted or top-dose-only effect, or effect the other way; inactive = no such curve, though single readings can be large or run the other way. Where the call is inconclusive, the potency comes from a doubtful curve fit.

assay: qHTS Multiplex Assay to Identify Dual Action Probes in a Cell Model of Huntington: Aggregate Formation (GFP); details: PC12 HttQ103-GFP aggregates, Acumen cytometry, 40 h; activity change, negative = inhibition: at 46.1 µM (top of the series) unless noted; note: nearly all actives have a fitted effect of over 60% in size
In short: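 Inducible Q103 Huntingtin exon 1–GFP PC12 line, 1500 cells/well in phenol red free DMEM with 5% equine and 5% calf serum. Tebufenozide 100 nM induced expression; compounds titrated; aggregates quantified by cytometry.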
% is set by controls: 0 for no effect and ±100 for the full control effect; potency is the fitted concentration of half-maximal effect.

SMILES	activity change, negative = inhibition	Potency
COc1ccc2nc(Nc3nc(CSc4nc5ccccc5[nH]4)cc(=O)[nH]3)nc(C)c2c1	inactive: -31.5%	–
Cc1cc(CSc2ccccc2)ccc1NC(=O)COc1ccccc1C	–	inconclusive: 5.62 µM [inhibitor, single point]
CC(C)(C)c1nnc(N/N=C/c2cc(Br)ccc2O)n(N)c1=O	–	active: 12.6 µM
Clc1ccc(CCNc2nc3ccccc3n3nnnc23)cc1	–	inconclusive: 6.31 µM [activator, single point]
CCOC(=O)N1CCC(=NNc2ccc(S(N)(=O)=O)cc2[N+](=O)[O-])CC1	–	inconclusive: 1 µM [activator, partial curve, poor fit]
CCOC(=O)c1sc(NC(=O)CSc2nc(C)cc(C)c2C#N)c(C#N)c1C	–	inconclusive: 1 µM [activator, full curve]
CCOC(=O)C1=NOC(CNC(=O)C2=NOC(CNC(=O)c3c(-c4ccccc4Cl)noc3C)C2)C1 (stereo not given)	inactive: -4.07%	–
Cc1ccc(C2=NNC(=Nc3ccc(F)cc3)SC2)cc1	–	inconclusive: 31.6 µM [inhibitor, single point]
COCc1nnc(NC(=O)c2ccc(S(=O)(=O)N(C)C3CCCCC3)cc2)o1	–	inconclusive: 11.2 µM [inhibitor, single point]
CCOC(=O)N1CCN(C(=O)c2ccc(CNS(=O)(=O)c3ccc(OC)cc3)cc2)CC1	inactive: -21%	–
CC(C)n1cc(C(=O)c2cc(Br)ccc2O)cc(C#N)c1=O	–	inconclusive: 14.1 µM [inhibitor, single point]
CCCSc1nnc(-c2cnn(-c3ccccc3)c2-n2cccc2)n1C	–	inconclusive: 11.2 µM [inhibitor, partial curve]
O=C1NC(=O)/C(=C\c2ccccc2OCc2ccccc2)S1	–	inconclusive: 11.2 µM [inhibitor, partial curve, poor fit]
Cc1ccccc1CSc1nc2ccccc2c(=O)[nH]1	inactive: -26.8%	–
Cc1cccc(NC(=O)c2c([N+](=O)[O-])c(C(C)(C)C)nn2C)c1	inactive: -5.3%	–
COc1ccc(C(c2c(N)[nH]c(=S)[nH]c2=O)c2c(N)[nH]c(=S)[nH]c2=O)cc1	inactive: -38% [at 9.22 µM]	–
O=C(Nc1c2c(nc3ccccc13)CCCC2)c1ccccc1F	–	inconclusive: 2.51 µM [activator, partial curve]
CCOC(=O)c1c(-c2ccc(C)cc2)csc1NC(=O)c1cc2ccccc2oc1=O	inactive: -12.6% [at 9.22 µM]	–
C=CCn1c(O)c(N=NC(=S)Nc2cccc(OC)c2)c2ccccc21	–	inconclusive: 6.31 µM [inhibitor, partial curve]
O=C(c1cnc2ccccn2c1=O)N1CCc2ccccc21	–	inconclusive: 1.58 µM [activator, partial curve]
CC(=O)c1ccc(S(=O)(=O)N2CCNCC2)cc1	inactive: -16% [at 9.22 µM]	–
CCN(CC)c1ccc(C=C2C(=O)OC(c3ccccc3)OC2=O)cc1 (stereo not given)	inactive: 22%	–
CC1(C)NC(=O)N(CCOc2cccc(Oc3ccccc3)c2)C1=O	–	inconclusive: 25.1 µM [inhibitor, single point]
CC(C)n1c(=S)[nH]c2cc(Cl)ccc21	inactive: 16% [at 9.22 µM]	–

SMILES	activity change, negative = inhibition	Potency
CC(C)(CNC(=O)c1ccc([N+](=O)[O-])c(Cl)c1)CNC(=O)c1ccc([N+](=O)[O-])c(Cl)c1	–	inconclusive: 14.1 µM [inhibitor, single point]
O=c1cc(-c2ccc(Cl)c(Cl)c2)[nH][nH]1	–	inconclusive: 20 µM [activator, partial curve]
COc1ccc(NC(=O)[C@H](C)NC(N)=O)cc1S(=O)(=O)Nc1cc(C)ccc1Br	inactive: 4.33%	–
Cc1ccc(SCC(=O)N2c3ccccc3Sc3ccccc32)cc1	–	active: 15.8 µM
O=C1C=CC(=O)N1CCNc1ncc(C(F)(F)F)cc1Cl	–	inconclusive: 35.5 µM [inhibitor, single point]
COc1ccc(-c2csc(NC(=O)c3ccccc3NS(=O)(=O)c3ccc(C)cc3)n2)cc1	–	inconclusive: 14.1 µM [inhibitor, partial curve]
c1ccc(-c2nnnn2CCOCCn2nnnc2-c2ccccc2)cc1	–	inconclusive: 1.41 µM [activator, partial curve]
CN1CCN(C(=S)c2ccc(OCC(=O)Nc3cccc(C(F)(F)F)c3)cc2)CC1	–	inconclusive: 22.4 µM [inhibitor, single point]
c1ccc(-n2nnnc2Sc2ncnc3sc4c(c23)CCCC4)cc1	–	inconclusive: 35.5 µM [inhibitor, single point]
CCC(=O)c1ccc(OCc2ccc(C(=O)c3ccccc3)cc2)cc1	–	inconclusive: 7.94 µM [inhibitor, partial curve]
CC(=O)N1N=C(c2ccco2)CC1c1ccc(C)cc1 (stereo not given)	inactive: 24.8%	–
c1csc(-c2csc3nc(CN4CCOCC4)nc(NCc4ccc5c(c4)OCO5)c23)c1	–	inconclusive: 5.62 µM [inhibitor, single point]
COc1ccc(-c2csc(Nc3ccc(S(=O)(=O)Nc4cc(OC)nc(OC)n4)cc3)n2)cc1	–	inconclusive: 35.5 µM [inhibitor, single point]
CC1CCCN(C(=O)c2ccncc2)C1 (stereo not given)	inactive: 5.44%	–
O=C(Nc1ccc(Cl)c(Cl)c1)OCCNC(=O)c1cccc(Cl)c1	–	inconclusive: 35.5 µM [inhibitor, single point]
N/C(=N\OC(=O)c1cc(-c2ccccc2)nc2ccccc12)c1ccc(Cl)cc1	–	inconclusive: 5.62 µM [inhibitor, single point]
CC(=O)Nc1ccc(N2CCN(Cc3ccccc3F)CC2)cc1	–	inconclusive: 5.62 µM [activator, single point]
O=C(NNC(=O)c1cc(OCC(F)(F)F)ccc1OCC(F)(F)F)c1cccc(C(F)(F)F)c1	–	inconclusive: 10 µM [inhibitor, partial curve]
O=C(CN1C(=O)C2C3CC(C(Br)C3Br)C2C1=O)Nc1ccc(C(=O)O)cc1 (stereo not given)	inactive: -0.629% [at 9.22 µM]	–
Cc1cccc(C(=O)c2c(N)sc3c2CCC(C)C3)c1 (stereo not given)	–	inconclusive: 35.5 µM [activator, partial curve]
S=c1[nH]ncn1-c1ccccn1	–	inconclusive: 5.62 µM [inhibitor, single point]
COc1ccc(-c2cc(-c3c(O)c(OC)c4occc4c3OC)[nH]n2)cc1	–	inconclusive: 35.5 µM [inhibitor, single point]
CCN(CC)S(=O)(=O)c1ccc(NC(=O)c2ccc(N(C)S(C)(=O)=O)cc2)cc1	–	inconclusive: 20 µM [inhibitor, single point]
COCCNS(=O)(=O)c1ccc(-c2ccc(S(=O)(=O)NCCOC)cc2)cc1	inactive: 3.22%	–

SMILES	activity change, negative = inhibition	Potency
CCCOc1cccc(NC(=O)c2c(-c3ccccc3)noc2C)c1	–	active: 6.31 µM
Cn1cnnc1SCC(=O)Nc1ccc(Cl)c(S(=O)(=O)N2CCOCC2)c1	–	inconclusive: 11.2 µM [activator, partial curve]
COc1ccc(/C=C2\N=C(SC)N(c3ccccc3OC)C2=O)cc1	–	inconclusive: 10 µM [inhibitor, partial curve]
CC(=O)N/C(=C/c1ccc2c(c1)OCO2)C(=O)NCC(=O)O	–	active: 3.16 µM
COc1cc(C2C(C#N)=C(N)OC3=C2C(=O)CC(C)(C)C3)ccc1OCCN1CCOCC1 (stereo not given)	inactive: 16.2% [at 9.22 µM]	–
COc1ccc(Cn2c(C)cc3c(c2=O)C(c2cccs2)C(C#N)=C(N)O3)cc1OC (stereo not given)	–	inconclusive: 2.82 µM [activator, full curve, poor fit]
NC(=O)c1sc2nc3c(c(-c4ccco4)c2c1N)CCC3	–	active: 4.47 µM
COC(=O)CSc1nnc(CNC(=O)c2cccs2)n1-c1cc(OC)ccc1OC	–	inconclusive: 35.5 µM [inhibitor, single point]
CCc1ccc2c(c1)/C(=C/C(=O)c1cccs1)C(=O)N2	–	inconclusive: 35.5 µM [inhibitor, single point]
CCCCc1c(O)nc2sc3cc(OC)ccc3n2c1=O	inactive: -12.5%	–
Cc1ccsc1C(=O)NNC(=O)C1CC=CCC1C(=O)O (stereo not given)	inactive: 7.01%	–
Cc1ccc2nc(NC(=O)C3CCCN(S(=O)(=O)c4cccnc4)C3)sc2c1 (stereo not given)	–	inconclusive: 2.82 µM [activator, single point]
NC(=O)C1CCN(C2CC(=O)NC2=O)CC1 (stereo not given)	inactive: 6.73%	–
CCOC(=O)CN1C(=O)C(Sc2n[nH]c(-c3ccc(O)cc3)n2)CCc2ccccc21 (stereo not given)	inactive: -12.7%	–
O=c1cc(CCl)nc2sc3ccccc3n12	–	inconclusive: 25.1 µM [inhibitor, single point]
O=C(NNc1cc(Cl)ccc1Cl)c1cccs1	inactive: 10.3% [at 9.22 µM]	–
O=C1NCCc2c1[nH]c1c(Cl)ccc(Cl)c21	–	inconclusive: 22.4 µM [inhibitor, partial curve]
Cc1ccc(C(=O)c2cc3ccccc3o2)cc1C	inactive: -12.6%	–
COc1ccc2nc(N=Nc3c(O)ccc4ccccc34)sc2c1	–	inconclusive: 3.55 µM [inhibitor, partial curve]
CN(c1ccc(OCC(=O)Nc2nc3ccccc3s2)cc1)S(=O)(=O)c1ccccc1	–	inconclusive: 12.6 µM [inhibitor, single point]
Cc1cc(-n2c(C)cc(C(=O)CCl)c2C)no1	–	inconclusive: 35.5 µM [inhibitor, single point]
COc1ccc(OC)c(-n2c(=S)[nH]c3cc(C(=O)NCCCN4CCCC4=O)ccc3c2=O)c1	–	inconclusive: 12.6 µM [activator, partial curve]

Part of the list above, with bars between the fields:
SMILES | activity change, negative = inhibition | Potency
CC1(C)NC(=O)N(CCOc2cccc(Oc3ccccc3)c2)C1=O | – | inconclusive: 25.1 µM [inhibitor, single point]
CC(C)n1c(=S)[nH]c2cc(Cl)ccc21 | inactive: 16% [at 9.22 µM] | –
CC(C)(CNC(=O)c1ccc([N+](=O)[O-])c(Cl)c1)CNC(=O)c1ccc([N+](=O)[O-])c(Cl)c1 | – | inconclusive: 14.1 µM [inhibitor, single point]
